From patent publication US12038447B2 (priority 2017, dated 2024)
Some of these results come from one statement about several compounds together.

Assay: Air and rinse stability of rSAMs, rinsing and drying cycles
Format: physicochemical
Conditions: rSAM on MHA-gold

| Compound | decrease in layer thickness after 2 cycles of rinsing with pH 8 buffer and drying |
| --- | --- |
| N=C(N)c1ccc(OCCCCCCCCCCOc2ccc(CCOCCOCCO)cc2)cc1 [E2, 4-[10-(4-{2-[2-(2-Hydroxy-ethoxy)-ethoxy]-ethyl}-phenoxy)-decyloxy]-benzamidine] | No decrease in layer thickness |
| N=C(N)c1ccc(OCCCCCCCCCCOc2ccc(CCOCCOCCOCCOCCO)cc2)cc1 [E4, 4-(10-{4-[2-(2-{2-[2-(2-Hydroxy-ethoxy)-ethoxy]-ethoxy}-ethoxy)-ethyl]-phenoxy}-decyloxy)-benzamidine] | No decrease in layer thickness |
| Cl.N=C(N)c1ccc(OCCCCCCCCCCOc2ccc(CCO)cc2)cc1 [compound 1, Amino(4-(10-(4-(2-hydroxyethyl)phenoxy)decyloxy)phenyl)methaniminium chloride] | No decrease in layer thickness |
